From PMC4476799, “Englerin A Agonizes the TRPC4/C5 Cation Channels to Inhibit Tumor Cell Line Proliferation” (PLoS ONE, 2015)
Further values from the same series stand in other lists.

Test system: cancer cell lines from the cancer cell line encyclopedia (CCLE)
Test: Cell line profiling (CLiP) proliferation experiment
Format: cell-based
Parameters: ACTIVITY_AREA: scale not given here; AMAX: unit not given here
Description: Compound profiling experiment and data analysis was performed as previously described. Data was imported and plotted using the Tibco Spotfire DXP application. Lines were categorized as sensitive, intermediate and refractory as follows: Amax<-40 & Inflection Point <2 ~ Sensitive, Amax>-20 & Inflection Point >10 ~ Refractory, all else were called Intermediate. Cancer Cell line HG-U133 Plus 2 data was processed and normalized as described. […] Five sets of refractory cell lines were generated from the pool of refractory cell lines trying to match the lineage composition of the set of sensitive cell lines. The limma package was used as previously described to perform the statistical comparison.

[1] = Ki-JK (haematopoietic_and_lymphoid_tissue)
[2] = L-363 (haematopoietic_and_lymphoid_tissue)
[3] = LAMA-84 (haematopoietic_and_lymphoid_tissue)
[4] = LN-229 (central_nervous_system)
[5] = LP-1 (haematopoietic_and_lymphoid_tissue)
[6] = Loucy (haematopoietic_and_lymphoid_tissue)

Compound: CC(C)[C@@]12C[C@@H](O)[C@@](C)(O1)[C@@H]1CC[C@@H](C)[C@H]1[C@@H]2OC(=O)/C=C/c1ccccc1 [Englerin B]
- ACTIVITY_AREA [1]: 33.09
- AMAX [1]: -86.88
- RESPONSE [1]: INTERMEDIATE
- ACTIVITY_AREA (L3.3 (pancreas)): 19.82
- AMAX (L3.3 (pancreas)): -1.42
- RESPONSE (L3.3 (pancreas)): REFRACTORY
- ACTIVITY_AREA [2]: 30.79
- AMAX [2]: -76.39
- RESPONSE [2]: INTERMEDIATE
- ACTIVITY_AREA [3]: 21.65
- AMAX [3]: -47.02
- RESPONSE [3]: INTERMEDIATE
- ACTIVITY_AREA (LAMA-84 cells): 21.65
- AMAX (LAMA-84 cells): -47.02
- RESPONSE (LAMA-84 cells): INTERMEDIATE
- ACTIVITY_AREA (LC-1/sq-SF (lung)): 17.23
- AMAX (LC-1/sq-SF (lung)): -27.78
- RESPONSE (LC-1/sq-SF (lung)): INTERMEDIATE
- ACTIVITY_AREA (LCLC-97TM1 (lung)): 12.1
- AMAX (LCLC-97TM1 (lung)): -48.44
- RESPONSE (LCLC-97TM1 (lung)): INTERMEDIATE
- ACTIVITY_AREA (LCLC-97TM1 cells): 12.1
- AMAX (LCLC-97TM1 cells): -48.44
- RESPONSE (LCLC-97TM1 cells): INTERMEDIATE
- ACTIVITY_AREA (LCLC-103H (lung)): 35.85
- AMAX (LCLC-103H (lung)): -43.37
- RESPONSE (LCLC-103H (lung)): INTERMEDIATE
- ACTIVITY_AREA (LCLC-103H cells): 35.85
- AMAX (LCLC-103H cells): -43.37
- RESPONSE (LCLC-103H cells): INTERMEDIATE
- ACTIVITY_AREA (LK-2 (lung)): 22.45
- AMAX (LK-2 (lung)): 0.44
- RESPONSE (LK-2 (lung)): REFRACTORY
- ACTIVITY_AREA (LMSU (stomach)): 54.83
- AMAX (LMSU (stomach)): -64.58
- RESPONSE (LMSU (stomach)): INTERMEDIATE
- ACTIVITY_AREA (LN-18 (central_nervous_system)): 54
- AMAX (LN-18 (central_nervous_system)): -84.56
- RESPONSE (LN-18 (central_nervous_system)): INTERMEDIATE
- ACTIVITY_AREA (LN-18 cells): 54
- AMAX (LN-18 cells): -84.56
- RESPONSE (LN-18 cells): INTERMEDIATE
- ACTIVITY_AREA [4]: 26.55
- AMAX [4]: -27.43
- RESPONSE [4]: INTERMEDIATE
- ACTIVITY_AREA (LOX IMVI (skin)): 48.52
- AMAX (LOX IMVI (skin)): -28.32
- RESPONSE (LOX IMVI (skin)): INTERMEDIATE
- ACTIVITY_AREA (LOX IMVI cells): 48.52
- AMAX (LOX IMVI cells): -28.32
- RESPONSE (LOX IMVI cells): INTERMEDIATE
- ACTIVITY_AREA [5]: 34.18
- AMAX [5]: -71.29
- RESPONSE [5]: INTERMEDIATE
- ACTIVITY_AREA (LP-1 cells): 34.18
- AMAX (LP-1 cells): -71.29
- RESPONSE (LP-1 cells): INTERMEDIATE
- ACTIVITY_AREA (LP-6 (soft_tissue)): 80.63
- AMAX (LP-6 (soft_tissue)): -44.12
- RESPONSE (LP-6 (soft_tissue)): INTERMEDIATE
- ACTIVITY_AREA (LS 180 (large_intestine)): 24.89
- AMAX (LS 180 (large_intestine)): -35.97
- RESPONSE (LS 180 (large_intestine)): INTERMEDIATE
- ACTIVITY_AREA (LS 180 cells): 24.89
- AMAX (LS 180 cells): -35.97
- RESPONSE (LS 180 cells): INTERMEDIATE
- ACTIVITY_AREA (LS411N (large_intestine)): 74.86
- AMAX (LS411N (large_intestine)): -68.27
- RESPONSE (LS411N (large_intestine)): INTERMEDIATE
- ACTIVITY_AREA (LU65 (lung)): 30.29
- AMAX (LU65 (lung)): -10.51
- RESPONSE (LU65 (lung)): REFRACTORY
- ACTIVITY_AREA (LU99 (lung)): 20.18
- AMAX (LU99 (lung)): -51.2
- RESPONSE (LU99 (lung)): INTERMEDIATE
- ACTIVITY_AREA (LXF-289 (lung)): 29.24
- AMAX (LXF-289 (lung)): -45.81
- RESPONSE (LXF-289 (lung)): INTERMEDIATE
- ACTIVITY_AREA (Li-7 (liver)): 9.97
- AMAX (Li-7 (liver)): -40.35
- RESPONSE (Li-7 (liver)): INTERMEDIATE
- ACTIVITY_AREA (LoVo (large_intestine)): 22.43
- AMAX (LoVo (large_intestine)): -43.58
- RESPONSE (LoVo (large_intestine)): INTERMEDIATE
- ACTIVITY_AREA [6]: 40.46
- AMAX [6]: -77.08
